# Assay results published in article PMC10041521 (Journal of Medicinal Chemistry, 2023).
# [ ]: non-standard residue; d: D form. The star is where a group is joined. Phe(3-F) = N[C@@H](Cc1cccc(F)c1)C(=O)O; ACC = NC(=O)Cc1cc(=O)oc2cc(N*)ccc12; Nle = CCCC[C@H](N)C(=O)O; OBn = c1ccc(CO*)cc1; Bn = c1ccc(C*)cc1
# Assay: general procedure: Fmoc solid-phase peptide synthesis; Rink amide RA resin (loading 0.74 mM/g); 2-chlorotrityl chloride resin (loading 1.60 mM/g); HATU/collidine; HBTU; DICI/HOBt
# Conditions: whole synthesis, analytical HPLC, Discovery Bio Wide Pore C8 column
row,Substance,final HPLC purity [%]
1,"Ac-Tyr(2,6-Cl2-Z)-Tyr(2,6-Cl2-Z)-His(Bzl)-Arg-ACC",≥ 99
2,Ac-Y(Bn)[Nle]E(OBn)R-{ACC} (SMILES CCCC[C@H](NC(=O)[C@H](Cc1ccc(OCc2ccccc2)cc1)NC(C)=O)C(=O)N[C@@H](CCC(=O)OCc1ccccc1)C(=O)N[C@@H](CCCNC(=N)N)C(=O)Nc1ccc2c(CC(N)=O)cc(=O)oc2c1),≥ 99
3,"Ac-Tyr(Bzl)-Tyr(2,6-Cl2-Z)-Glu(Bzl)-Arg-ACC",≥ 99
4,"Ac-Tyr(2,6-Cl2-Z)-Cha-His(Bzl)-Arg-ACC",≥ 99
5,"Ac-Tyr(2,6-Cl2-Z)-2-Aoc-Glu(Bzl)-Arg-ACC",≥ 95
6,"Ac-Tyr(Bzl)-Tyr(2,6-Cl2-Z)-His(Bzl)-Arg-ACC",≥ 95
7,"Ac-Tyr(2,6-Cl2-Z)-Tyr(2,6-Cl2-Z)-Glu(Bzl)-Arg-ACC",≥ 99
8,Ac-Bpa-2-Aoc-His(Bzl)-Arg-ACC,≥ 99
9,"Ac-Tyr(2,6-Cl2-Z)-2-Aoc-Nle(O-Bzl)-Arg-ACC",≥ 97
10,"Ac-Tyr(2,6-Cl2-Z)-Nle-His(Bzl)-Arg-ACC",≥ 99
11,"biotin-PEG(4)-Tyr(2,6-Cl2-Z)-Dht-His(Bzl)-ArgP(OPh)2",≥ 97
12,"Ac-Tyr(2,6-Cl2-Z)-2-Aoc-His(Bzl)-Arg-ACC",≥ 99
13,Ac-Tyr(Bzl)-2-Aoc-Glu(Bzl)-Arg-ACC,≥ 99
14,Ac-I[Nle]NR-{ACC},≥ 99
15,"Ac-Tyr(2,6-Cl2-Z)-2-Aoc-hSer(Bzl)-Arg-ACC",≥ 99
16,"Ac-Tyr(2,6-Cl2-Z)-Phe(3-F)-His(Bzl)-Arg-ACC",≥ 99
17,Ac-Tyr(Bzl)-Nle-His(Bzl)-Arg-ACC,≥ 99
18,Ac-Lys(2-Cl-Z)-2-Aoc-His(Bzl)-Arg-ACC,≥ 99
19,"Ac-Tyr(2,6-Cl2-Z)-Phe(3-F)-Glu(Bzl)-Arg-ACC",≥ 99
20,Ac-Y(Bn)[Phe(3-F)]E(OBn)R-{ACC},≥ 99
21,"biotin-PEG(4)-Tyr(2,6-Cl2-Z)-Nle-Glu(Bzl)-ArgP(OPh)2",≥ 95
22,Ac-Tyr(Bzl)-2-Aoc-His(Bzl)-Arg-ACC,≥ 99
23,"Ac-Tyr(2,6-Cl2-Z)-Nle-Glu(Bzl)-Arg-ACC",≥ 99
24,"Ac-Tyr(2,6-Cl2-Z)-hCha-His(Bzl)-Arg-ACC",≥ 99
25,"Ac-Tyr(2,6-Cl2-Z)-Dht-His(Bzl)-Arg-ACC",≥ 99
26,Ac-Tyr(Bzl)-Phe(3-F)-His(Bzl)-Arg-ACC,≥ 99
